Reference: PubChem BioAssay AID1224830 (NIAID, 2016)

Purpose: 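Host factors that control LPS-induced TNF expression in human macrophages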 (primary screen)
Cells: human THP-1 monocytic leukaemia cells, TNF dual-luciferase reporter clone, PMA-differentiated to macrophage-like cells
Reagents: siRNA pool against human genes, 50 nM
Timing: LPS for 4 h, given about 3 days after siRNA transfection
Treatment: bacterial LPS (TLR4 ligand), 10 ng/ml
Detection: 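TNF firefly reporter luminescence divided by renilla, normalised to the plate median, then turned into a robust z-score for each replicate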
Direction: TNF reporter robust z-score: higher = stronger TNF reporter response to LPS
Call rule: 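Each well counts as active if its z-score is over 2.8 or under -1.5; controls are left without a call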
The whole screen tested about 18,000 reagents; below is a random part of them. About 2,900 of them (16%) were called active. 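Calls are made per well; low scores hint the gene aids the LPS response, high scores that it dampens it.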 Repeated entries: four replicate wells of each siRNA pool. No sequences are given here.

gene | TNF reporter robust z-score | activity call
RPL41 | 0.81 | inactive
RPL41 | 0.71 | inactive
RPL41 | 0.31 | inactive
RPL41 | 1.48 | inactive
ADGRF4 | -0.73 | inactive
ADGRF4 | -0.4 | inactive
ADGRF4 | -0.96 | inactive
ADGRF4 | -0.04 | inactive
CCR8 | -1.45 | inactive
CCR8 | -1.48 | inactive
CCR8 | -1.36 | inactive
CCR8 | -1.55 | active
C18orf54 | 1.26 | inactive
C18orf54 | 1.76 | inactive
C18orf54 | 1.32 | inactive
C18orf54 | 2.11 | inactive
RTP1 | 0.56 | inactive
RTP1 | 0.13 | inactive
RTP1 | 1.5 | inactive
RTP1 | 1.13 | inactive
KCTD2 | 0.69 | inactive
KCTD2 | 1.14 | inactive
KCTD2 | -0.06 | inactive
KCTD2 | 1.1 | inactive
FAM81B | -0.93 | inactive
FAM81B | -0.41 | inactive
FAM81B | -0.15 | inactive
FAM81B | -0.54 | inactive
POTEA | -0.25 | inactive
POTEA | 1.21 | inactive
POTEA | 1.64 | inactive
POTEA | 2.37 | inactive
TAAR1 | -0.3 | inactive
TAAR1 | 0.94 | inactive
TAAR1 | -0.17 | inactive
TAAR1 | 0.63 | inactive
SEMA3E | 0.3 | inactive
SEMA3E | -0.27 | inactive
SEMA3E | -0.2 | inactive
SEMA3E | -0.32 | inactive
GABRQ | -2.33 | active
GABRQ | 0.02 | inactive
GABRQ | 0.85 | inactive
GABRQ | 0.31 | inactive
SMN2 | 0.03 | inactive
SMN2 | -0.19 | inactive
SMN2 | -0.66 | inactive
SMN2 | -0.93 | inactive
TRAPPC1 | 0.17 | inactive
TRAPPC1 | 0.02 | inactive
TRAPPC1 | 0.29 | inactive
ZNF835 | -0.77 | inactive
ZNF835 | -0.75 | inactive
ZNF835 | -0.91 | inactive
ZNF835 | -0.93 | inactive
GPNMB | -0.8 | inactive
GPNMB | 0.16 | inactive
GPNMB | -0.49 | inactive
GPNMB | 0.08 | inactive
LHFPL3 | -0.16 | inactive
LHFPL3 | 0.58 | inactive
LHFPL3 | 0.74 | inactive
LHFPL3 | 0.08 | inactive
MPIG6B | -0.54 | inactive
MPIG6B | -0.46 | inactive
MPIG6B | -0.53 | inactive
MPIG6B | -0.01 | inactive
MPHOSPH6 | 0.58 | inactive
MPHOSPH6 | -0.14 | inactive
MPHOSPH6 | 0.75 | inactive
MPHOSPH6 | 2.24 | inactive
EXOSC3 | -1.52 | active
EXOSC3 | -0.82 | inactive
EXOSC3 | -0.6 | inactive
EXOSC3 | -0.17 | inactive
VPS33A | -1.16 | inactive
VPS33A | 0.25 | inactive
VPS33A | -1.72 | active
VPS33A | -0.48 | inactive
DCP2 | -0.97 | inactive
DCP2 | -0.31 | inactive
DCP2 | -0.13 | inactive
DCP2 | -0.18 | inactive
CUL9 | 0.15 | inactive
CUL9 | 0.14 | inactive
CUL9 | -0.5 | inactive
CUL9 | -1.38 | inactive
NAPSA | 1.18 | inactive
NAPSA | 1.35 | inactive
NAPSA | 3.54 | active
NAPSA | 2.08 | inactive
MMRN1 | 0.5 | inactive
MMRN1 | 1.37 | inactive
MMRN1 | -0.33 | inactive
MMRN1 | 0.65 | inactive
SLC5A6 | 0.94 | inactive
SLC5A6 | 1.15 | inactive
SLC5A6 | 0.76 | inactive
SLC5A6 | 0.48 | inactive
FAT1 | 0.46 | inactive
FAT1 | -0.76 | inactive
FAT1 | -0.11 | inactive
FAT1 | 0.82 | inactive
CLK1 | -1.05 | inactive
CLK1 | -1.51 | active
CLK1 | -0.78 | inactive
CLK1 | -0.92 | inactive
C9orf43 | -0.56 | inactive
C9orf43 | 0.2 | inactive
C9orf43 | -1.18 | inactive
C9orf43 | -0.43 | inactive
ZNF780A | 2.18 | inactive
ZNF780A | 0.2 | inactive
ZNF780A | 0.76 | inactive
ZNF780A | -0.47 | inactive
FGD5 | 3.3 | active
FGD5 | 0.44 | inactive
FGD5 | 1.06 | inactive
FGD5 | 0.5 | inactive
VPS33B | 0.06 | inactive
VPS33B | 0.59 | inactive
VPS33B | 0.12 | inactive
VPS33B | 0.24 | inactive
SCYL1 | 2.32 | inactive
SCYL1 | 0.19 | inactive
SCYL1 | 0.74 | inactive
SCYL1 | 0.51 | inactive
SCN4A | -0.64 | inactive
SCN4A | -0.02 | inactive
SCN4A | -0.37 | inactive
SCN4A | 0.55 | inactive
SPINT4 | 0.53 | inactive
SPINT4 | 0.5 | inactive
SPINT4 | 0.02 | inactive
SPINT4 | 0.72 | inactive
AKAP3 | 0.23 | inactive
AKAP3 | 0.43 | inactive
AKAP3 | 0.91 | inactive
AKAP3 | 0.41 | inactive
TDRD12 | 1.69 | inactive
TDRD12 | -0.5 | inactive
TDRD12 | -0.44 | inactive
TDRD12 | 0 | inactive
